Test system: T1, E. huxleyi dihydroorotate dehydrogenase (EhDHODH)
T1 construct: ΔN20EhDHODH (first 20 residues truncated, start at residue 21; N-terminal eight-residue histidine tag)
Test: steady-state kinetics, DCIP assay (apparent Km)
Assay type: biochemical, Emiliania huxleyi

O=C1C[C@@H](C(=O)O)NC(=O)N1 [L-dihydroorotate]
Km: 170 ± 30 µM

CCCCCCCCCCC1=C(C)C(=O)C(OC)=C(OC)C1=O [decylubiquinone]
Km: 8 ± 1 µM
